Experimental data taken from US6359194.
No constants are given. Whether binding was seen depends on the method and setting. For part of these data: Binding seen in cells or lysates may run through a third protein. Some results given as binding are weak or reduced against the parent protein; the word gives no strength. Tags and fused reporters may be left off the sequences shown.

Chains of the proteins cited; added tags and fusions are not shown. Lines headed by an entry give the natural chain unless they say otherwise; changes in a name come on top.
UniProt P04386: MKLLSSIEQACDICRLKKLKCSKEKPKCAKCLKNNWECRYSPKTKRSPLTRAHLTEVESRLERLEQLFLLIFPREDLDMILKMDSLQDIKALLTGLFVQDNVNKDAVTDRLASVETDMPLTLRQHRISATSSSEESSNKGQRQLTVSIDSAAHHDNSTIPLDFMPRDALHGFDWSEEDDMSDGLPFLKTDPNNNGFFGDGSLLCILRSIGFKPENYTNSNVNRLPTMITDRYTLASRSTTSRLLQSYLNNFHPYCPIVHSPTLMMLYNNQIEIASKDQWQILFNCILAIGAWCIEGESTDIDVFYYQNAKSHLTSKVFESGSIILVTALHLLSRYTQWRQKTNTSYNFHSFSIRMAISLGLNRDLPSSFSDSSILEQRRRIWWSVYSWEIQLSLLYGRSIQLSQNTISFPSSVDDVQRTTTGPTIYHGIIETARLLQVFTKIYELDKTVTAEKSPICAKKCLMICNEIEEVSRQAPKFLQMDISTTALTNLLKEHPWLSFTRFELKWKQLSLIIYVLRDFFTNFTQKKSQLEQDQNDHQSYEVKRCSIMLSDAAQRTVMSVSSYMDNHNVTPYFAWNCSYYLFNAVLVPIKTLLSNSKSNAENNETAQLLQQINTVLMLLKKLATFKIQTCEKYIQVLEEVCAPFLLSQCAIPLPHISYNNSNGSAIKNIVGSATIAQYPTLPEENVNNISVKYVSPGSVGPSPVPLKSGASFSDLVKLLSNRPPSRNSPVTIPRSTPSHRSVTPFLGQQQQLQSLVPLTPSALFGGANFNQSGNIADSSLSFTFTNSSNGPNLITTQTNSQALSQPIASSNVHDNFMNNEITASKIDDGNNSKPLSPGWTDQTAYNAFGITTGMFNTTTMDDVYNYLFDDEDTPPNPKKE
UniProt O15105: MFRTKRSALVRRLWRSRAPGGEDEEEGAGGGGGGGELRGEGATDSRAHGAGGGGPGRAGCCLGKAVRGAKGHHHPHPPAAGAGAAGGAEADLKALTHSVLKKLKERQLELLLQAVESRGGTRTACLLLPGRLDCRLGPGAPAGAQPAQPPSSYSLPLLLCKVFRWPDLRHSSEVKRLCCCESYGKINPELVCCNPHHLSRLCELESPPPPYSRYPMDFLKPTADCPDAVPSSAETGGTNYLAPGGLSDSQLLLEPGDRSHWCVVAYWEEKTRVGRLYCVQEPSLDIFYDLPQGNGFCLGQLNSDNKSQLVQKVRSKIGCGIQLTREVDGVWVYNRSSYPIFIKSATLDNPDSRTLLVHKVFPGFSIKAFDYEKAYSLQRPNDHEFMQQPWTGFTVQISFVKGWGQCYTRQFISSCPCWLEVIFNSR
UniProt Q13485: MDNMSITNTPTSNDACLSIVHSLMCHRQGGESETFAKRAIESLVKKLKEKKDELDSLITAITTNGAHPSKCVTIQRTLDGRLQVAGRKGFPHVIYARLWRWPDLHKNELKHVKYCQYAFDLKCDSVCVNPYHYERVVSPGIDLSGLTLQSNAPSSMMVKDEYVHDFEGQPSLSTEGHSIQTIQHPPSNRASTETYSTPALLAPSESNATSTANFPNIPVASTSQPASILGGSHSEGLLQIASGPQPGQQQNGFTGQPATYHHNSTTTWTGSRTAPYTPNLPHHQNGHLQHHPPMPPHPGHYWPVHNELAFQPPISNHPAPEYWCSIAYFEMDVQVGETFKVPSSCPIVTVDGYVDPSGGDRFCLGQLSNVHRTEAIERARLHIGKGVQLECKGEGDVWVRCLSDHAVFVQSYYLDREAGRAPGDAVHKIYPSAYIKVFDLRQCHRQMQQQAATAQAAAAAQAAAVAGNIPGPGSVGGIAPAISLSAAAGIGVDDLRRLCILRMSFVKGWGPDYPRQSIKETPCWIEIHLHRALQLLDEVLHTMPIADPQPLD
UniProt Q15797: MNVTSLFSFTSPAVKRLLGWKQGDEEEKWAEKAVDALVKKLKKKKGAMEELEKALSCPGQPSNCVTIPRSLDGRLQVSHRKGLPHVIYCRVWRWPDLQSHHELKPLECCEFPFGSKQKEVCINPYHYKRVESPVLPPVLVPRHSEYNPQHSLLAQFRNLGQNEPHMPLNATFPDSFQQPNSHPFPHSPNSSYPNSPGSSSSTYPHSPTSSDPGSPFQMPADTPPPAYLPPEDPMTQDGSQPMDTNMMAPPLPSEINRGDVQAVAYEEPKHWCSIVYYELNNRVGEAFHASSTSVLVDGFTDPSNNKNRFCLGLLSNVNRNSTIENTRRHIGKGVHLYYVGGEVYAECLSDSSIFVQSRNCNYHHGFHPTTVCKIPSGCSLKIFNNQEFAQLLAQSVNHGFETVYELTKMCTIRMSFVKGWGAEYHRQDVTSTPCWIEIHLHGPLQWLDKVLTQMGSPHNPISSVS
UniProt Q15796: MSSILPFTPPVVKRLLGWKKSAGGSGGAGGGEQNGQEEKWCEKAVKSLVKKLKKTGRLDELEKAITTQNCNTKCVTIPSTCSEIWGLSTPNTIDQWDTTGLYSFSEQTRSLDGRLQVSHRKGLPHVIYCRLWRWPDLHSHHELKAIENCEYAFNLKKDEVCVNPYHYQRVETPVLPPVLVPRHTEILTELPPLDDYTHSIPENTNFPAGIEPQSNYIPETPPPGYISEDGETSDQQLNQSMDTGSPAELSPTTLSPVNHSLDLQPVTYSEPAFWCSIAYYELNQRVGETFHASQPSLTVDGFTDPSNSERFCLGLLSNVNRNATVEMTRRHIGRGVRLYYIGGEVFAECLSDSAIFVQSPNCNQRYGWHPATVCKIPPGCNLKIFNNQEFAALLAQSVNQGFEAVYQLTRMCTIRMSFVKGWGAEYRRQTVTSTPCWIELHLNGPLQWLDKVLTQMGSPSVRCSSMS

How the values were obtained:
[1] = target: T1, GAL4 DNA-binding domain-fchd540 fusion (human) (UniProt P04386+O15105); assay: yeast two-hybrid mating assay (HIS3 and lacZ reporters)
[2] = target: T1, GAL4 DNA-binding domain-fchd540 fusion (human); assay: yeast two-hybrid screen of a human breast library with fchd540 bait (strain TB35)
[3] = target: rchd534 protein fused to a flag peptide (transfected 293 cells or BAECs) (human) (UniProt O43541); assay: co-immunoprecipitation (summary at the head of the example)
[4] = target: fchd540 protein fused to a flag peptide (transfected 293 cells or BAECs) (human) (UniProt O15105); assay: co-immunoprecipitation from transfected 293 cells and BAECs; said to be significantly less avid than the rchd534 protein's interaction with itself
[5] = target: DPC4 (transfected 293 cells or BAECs) (UniProt Q13485); assay: co-immunoprecipitation from transfected 293 cells and BAECs; much greater in BAECs for DPC4
[6] = target: rchd534 protein fused to a flag peptide (transfected 293 cells or BAECs) (human) (UniProt O43541); assay: co-immunoprecipitation from transfected 293 cells and BAECs
[7] = target: fchd540 protein fused to a flag peptide (transfected 293 cells or BAECs) (human) (UniProt O15105); assay: as above
MADR1 [8] = target: MADR1 (UniProt Q15797); assay: as above
MADR2 [9] = target: MADR2 (UniProt Q15796); assay: as above
[10] = target: DPC4 (transfected 293 cells or BAECs) (UniProt Q13485); assay: co-immunoprecipitation (summary at the head of the example; strongly, endothelial cells)
MADR1 [11] = target: MADR1 (UniProt Q15797); assay: as above
MADR2 [12] = target: MADR2 (UniProt Q15796); assay: as above

Measured: binding

B1: GAL4 transcriptional activation domain-rchd534 fusion (protein, human, UniProt O43541-2 1-235, looked up, not shown: large carriers)
chain: MSRMGKPIETQKSPPPPYSRLSPRDEYKPLDLSDSTLSYTETEATNSLITAPGEFSDASMSPDATKPSHWCSVAYWEHRTRVGRLYAVYDQAVSIFYDLPQGSGFCLGQLNLEQRSESVRRTRSKIGFGILLSKEPDGVWAYNRGEHPIFVNSPTLDAPGGRALVVRKVPPGYSIKVFDFERSGLQHAPEPDAADGPYDPNSVRISFAKGWGPCYSRQFITSCPCWLEILLNNPR
binds: [1]

B2: tchv03A (GAL4 activation domain fusion to amino acids 17-235 of rchd534) (protein, not shown: large carriers)
chain: PYSRLSPRDEYKPLDLSDSTLSYTETEATNSLITAPGEFSDASMSPDATKPSHWCSVAYWEHRTRVGRLYAVYDQAVSIFYDLPQGSGFCLGQLNLEQRSESVRRTRSKIGFGILLSKEPDGVWAYNRGEHPIFVNSPTLDAPGGRALVVRKVPPGYSIKVFDFERSGLQHAPEPDAADGPYDPNSVRISFAKGWGPCYSRQFITSCPCWLEILLNNPR
binds: [2] | [1]

B3: tchvR4A (GAL4 activation domain fusion to amino acids 25-235 of rchd534) (protein, not shown: large carriers)
chain: DEYKPLDLSDSTLSYTETEATNSLITAPGEFSDASMSPDATKPSHWCSVAYWEHRTRVGRLYAVYDQAVSIFYDLPQGSGFCLGQLNLEQRSESVRRTRSKIGFGILLSKEPDGVWAYNRGEHPIFVNSPTLDAPGGRALVVRKVPPGYSIKVFDFERSGLQHAPEPDAADGPYDPNSVRISFAKGWGPCYSRQFITSCPCWLEILLNNPR
binds: [2] | [1]

B4: rchd534 protein fused to a flag peptide (transfected 293 cells or BAECs) (protein, human, UniProt O43541-2 1-235, looked up, not shown: small tags and cut ends)
chain: B1 chain
not listed: [1] | [2]
binds: all other assays above
